We go through 37 compounds from PubChem BioAssay AID2685 (National Center for Advancing Translational Sciences (NCATS), 2010).

This assay in a line: qHTS Assay for Lipid Storage Modulators in Drosophila S3 Cells.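 For cell number change: cells counted by Cell Tracker Red CMTPX staining in the red channel.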 As to conditions: BODIPY lipid droplet fluorescence, 18-24 h; for cell number change: measured here: cell count max response, cells fed with added oleic acid. A digest of the protocol:
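Laser-scanning cytometry quantifies lipid droplet accumulation (500–530 nm total intensity; droplet/cell object ratio) in oleic acid-fed (400 uM added) Drosophila S3 cells treated with a concentration series. 20 uM Triacsin C defined 100% inhibition.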
(In general: In qHTS, concentration-response curves come from the screen itself.)

The mark [1] stands for this setting: measured here: lipid fluorescence (Fed channel) AC50, cells fed with added oleic acid.
Where [2] appears, read: measured here: cell number channel AC50, cells fed with added oleic acid.

The list shows a part of the results. These are further read-outs of the screen, such as a control signal, another cell line or another target. No call is given for them. Compounds called inactive in the main read-out are mostly missing here. Potencies come from curve fits of mixed quality, noted in brackets.

In the case of `CCCOc1ccc(-c2nnn(CC(=O)c3ccc4c(c3)OCCO4)n2)cc1`, the cell number change was -1.8%.

As usually defined, the AC50 is the midpoint of the concentration-response curve, whichever way the signal moves. A low value points to activity at low concentration. `CCNC(=O)COc1ccc(Br)cc1Cl`: under setting [1], the AC50 was 6.51 µM [rising, single point].

As for `COc1ccc(CCn2c(C)cc(C(=O)CSc3nnnn3-c3ccccc3)c2C)cc1`, the cell number change turned out to be 94.5%. Further, the AC50 under setting [2] is 0.411 µM [rising, full curve]. Also, under setting [1], the AC50 was 0.366 µM [rising, full curve].

For `Cc1ccccc1OCCC(=O)OCC(=O)N(C)c1c(N)n(Cc2ccccc2)c(=O)[nH]c1=O`, the cell number change was -20.7%. In addition, the AC50 under setting [1] is 0.731 µM [falling, partial curve, poor fit].

`CC(C)Cn1c(CN2CCN(C(=O)c3ccco3)CC2)nc2c1c(=O)n(C)c(=O)n2C`: the cell number change turned out to be 38.9%. Under setting [2], the AC50 was 4.61 µM [rising, full curve].

On to `Cc1ccc(S(=O)(=O)N2CCCCC2)cc1NC(=O)CNc1ccccc1N1CCCC1=O`, for which the cell number change is -6.99%. Moreover, the AC50 under setting [1] is 0.058 µM [rising, full curve, poor fit].

Take `CC(C)[C@H]1COCCS(=O)(=O)N1Cc1ccc(Cl)cc1`: the cell number change amounted to 14.1%.

`CC[C@@]12C(=O)N(c3cccc(Br)c3)C(=O)N1[C@H](c1ccc(Cl)cc1)[C@@H]1C(=O)N(C3CCCCC3)C(=O)[C@@H]12`: the AC50 under setting [1] was 29.1 µM [falling, single point].

Regarding `CC(=O)CCc1ccc(OCC(=O)Nc2cccc(S(=O)(=O)N(C)c3ccccc3)c2)cc1`, the cell number change worked out at 47.8%. Also, the concentration at half-maximal activity (AC50) under setting [2] is 13 µM [rising, partial curve, poor fit].

Take `CC(=O)c1ccccc1NC(=O)c1ccc(N2CCCC2=O)cc1`: the cell number change came to 37%. Also, the AC50 under setting [2] was 1.3 µM [rising, partial curve]. Further, under setting [1], the AC50 is 16.4 µM [rising, partial curve].

With `O=C1[C@H]2CC3CCC2(O3)[C@@H]2OCCCN12` (stereo partly specified), the cell number change turned out to be 0.858%.

Consider `Cc1ccc(C(=O)NC(=C(Cl)Cl)S(=O)(=O)c2ccc(Cl)cc2)cc1`, for which the cell number change is -29%. For the same compound, the AC50 under setting [1] is 32.6 µM [falling, partial curve, poor fit].

In the case of `CSCCC(NC(=O)c1ccco1)C(=O)Nc1ccc(C)c(S(=O)(=O)N2CCOCC2)c1` (stereo unspecified), the cell number change is 4.17%.

Consider `Cc1ccc(CNC(=O)CS(=O)CC(=O)O)cc1` (stereo unspecified), for which the cell number change was -30.2%. Under setting [2], the AC50 was 7.31 µM [falling, partial curve]. Moreover, under setting [1], the AC50 is 14.6 µM [falling, partial curve].

Regarding `Cc1ccc(CN2Cc3cccc4c3[C@@H](CC2=O)[C@H](O)[C@H](O)C4)cc1`, the cell number change is -1.56%. Moreover, the AC50 under setting [1] was 16.4 µM [rising, partial curve].

On to `CC(=O)Nc1cc(NC(C)=O)c(CC(C)C)s1`, for which the cell number change is -10.8%. In addition, the concentration at half-maximal activity (AC50) under setting [2] was 0.116 µM [falling, full curve, poor fit]. The concentration at half-maximal activity (AC50) under setting [1] was 6.51 µM [falling, single point].

For `CC(C)CN(C(=O)CSc1n[nH]c(-c2cccs2)n1)C1CCS(=O)(=O)C1` (stereo unspecified), the cell number change is -4.26%. Also, the AC50 under setting [1] was 29.1 µM [falling, single point].

`COC(=O)CCSCC(=O)Nc1ccc(C)c(S(=O)(=O)N2CCCCC2)c1`: the cell number change is -8.11%.

As to `CC1CN(C(=O)c2ccc(NS(=O)(=O)c3ccc(C(C)(C)C)cc3)cc2)CC(C)O1` (stereo unspecified), the cell number change is -14.1%. For the same compound, the AC50 under setting [1] was 29.1 µM [falling, single point].

Regarding `Cc1cc2nc(Cl)c(Cl)nc2cc1C`, the cell number change is -15.4%. The AC50 under setting [1] was 20.6 µM [falling, single point].

As for `COc1ccccc1NC(=O)Nc1ccccc1N1CCOCC1`, the cell number change was -16.5%. Besides, the AC50 under setting [2] was 0.58 µM [rising, single point]. The AC50 under setting [1] is 0.0731 µM [falling, full curve, poor fit].

As for `Cc1ccnc(NC(=O)c2ccc(OCc3c(C)noc3C)cc2)c1`, the cell number change was -25%. Moreover, the AC50 under setting [2] is 0.82 µM [rising, single point].

For the compound `Cc1ccc(NC(=O)c2ccc(Oc3ncccn3)cc2)cc1`, the AC50 under setting [1] was 6.51 µM [falling, single point].

Turning to `O=C(CSc1nnc(CNC(=O)c2ccc(F)cc2)o1)Nc1nccs1`, the cell number change was -57.7%. Besides, the concentration at half-maximal activity (AC50) under setting [2] was 5.01 µM [falling, partial curve]. Further, the AC50 under setting [1] was 14.1 µM [falling, partial curve].

For `COc1ccc(/C=C/C2=NN(Cc3ccccc3)C(=O)CC2)cc1`, the cell number change is 23.7%. In addition, the AC50 under setting [1] was 29.1 µM [rising, single point].

Take `CC(C)(C)NC(=O)CN(C(=O)C(=O)Nc1ccc2c(c1)OCCO2)C1CCCC1`: the cell number change was -10.5%. Under setting [1], the AC50 was 0.206 µM [falling, single point].

With `Cc1cc(C)n2nc(C(=O)OCC(=O)NC3CCCCC3)nc2n1`, the cell number change is 7%.

On to `COc1ccc(CCN(Cc2cc3cccc(C)c3[nH]c2=O)C(=O)NC2CCCCC2)cc1OC`, for which the cell number change stood at 23.6%. In addition, the AC50 under setting [2] is 0.164 µM [rising, full curve, poor fit].

Regarding `COCCNC(=O)COC(=O)/C=C/c1c(C)nn(Cc2ccc(Cl)cc2Cl)c1Cl`, the cell number change is -55.1%. Under setting [2], the AC50 is 13 µM [falling, partial curve]. In addition, under setting [1], the half-maximal activity concentration (AC50) was 4.11 µM [falling, single point].

Consider `Cc1ccc(-n2c(C)cc(/C=N/NC(=O)c3ccncc3)c2C)c(C)c1`, for which the AC50 under setting [1] is 16.4 µM [falling, partial curve, poor fit].

`Cc1ccc(C(=O)NCCCNC(=O)COc2ccccc2Cl)cn1`: the cell number change is -11.5%.

For the compound `O=C(CN1CCOCC1)Nc1ccccc1C(=O)O`, the cell number change was -20.6%. For the same compound, under setting [1], the AC50 was 0.184 µM [falling, full curve, poor fit].

With `C=CCn1c(SCC(=O)NCc2ccc3c(c2)OCO3)nc2scc(-c3ccc(F)cc3)c2c1=O`, the cell number change stood at 68.8%. Also, the AC50 under setting [2] was 2.59 µM [rising, full curve]. Under setting [1], the AC50 is 18.4 µM [rising, partial curve].

For the compound `CN(C)CCN1C(=O)C(=O)/C(=C(/O)c2ccc(S(=O)(=O)N3CCOCC3)cc2)C1c1ccc(Br)cc1` (stereo unspecified), the cell number change was found to be 11.7%. Further, the AC50 under setting [1] was 0.00651 µM [rising, full curve, poor fit].

`COc1ccc(S(=O)(=O)NCCC(C)C)cc1OC`: the cell number change is 13.3%.

Consider `Oc1ccc(Cl)cc1CNCc1ccc(F)cc1`, for which the cell number change was -42.5%. Besides, under setting [2], the AC50 is 23.1 µM [falling, single point]. For the same compound, the AC50 under setting [1] is 1.64 µM [falling, partial curve].

With `COc1ccc(N(C(=O)c2snc(C(N)=O)c2N)C(C(=O)NC2CCCC2)c2cccs2)c(OC)c1` (stereo unspecified), the cell number change was -31.4%. Under setting [2], the half-maximal activity concentration (AC50) was 0.291 µM [falling, single point].
